Common to all, as to experiment: microbe, parasite or virus in culture
For experiment [1], the system named is pRABV (pseudovirus enveloped by the RABV glycoprotein G). It counts as cell-based, rabies virus.
For experiment [2], the system named is pVSV (pseudovirus expressing a vesicular stomatitis virus envelope glycoprotein). It is filed as cell-based.
Experiment [3] deals with RABV CVS strain. It counts as cell-based. The following applies: Lyssavirus rabies, 24 h, read-out: CVS EC50.

Structures can show the parent of a compound that is named as a salt.

For orientation: EC50 means the midpoint of the concentration-response curve.

With `CNCCCC12CCC(c3ccccc31)c1ccccc12` [Maprotiline hydrochloride], the “SI pRABV” value in experiment [1] is reported as 7.5. Further, the EC50 came to 6.9 µM in experiment [1] (Pseudovirus, HEK-293T, 48 h, read-out: pRABV EC50); 32.5 µM in experiment [2] (Pseudovirus, HEK-293T, read-out: pVSV EC50); 44.2 µM in experiment [3]. For the same compound, in experiment [2], the EC50pVSV/EC50pRABV worked out at 4.7.

For the origin of these results see paper PMC8012719 (Frontiers in Pharmacology, 2021).
